Source: PubChem BioAssay AID2685 (National Center for Advancing Translational Sciences (NCATS), 2010)
In all, about 320,000 compounds went through this assay and about 2,100 (0.66%) were called active. The shares of active, inactive and inconclusive entries below differ from those in the screen. The call rests on the fitted dose curve; in most records, active means well fitted inhibition curve with a large enough effect in the signal ratio, with a control signal flat (not every such curve was filed as active); inconclusive means small, poorly fitted or top-dose-only effect, or effect the other way, or a change in a side signal; inactive means flat fitted curve, though single readings scatter; the % refers to the signal ratio. Where the call is inconclusive, the potency comes from a doubtful curve fit.

experiment: qHTS Assay for Lipid Storage Modulators in Drosophila S3 Cells; details: BODIPY lipid droplet fluorescence, 18-24 h, cells fed with added oleic acid; lipid storage change, negative = inhibition: at 46.1 µM (top of the series) unless noted
How it was run: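 Drosophila S3 cells got compounds at several concentrations plus oleic acid (400 uM solution). Laser-scanning cytometry with 488 nm excitation read lipid droplets at 500-530 nm and cells at 575-640 nm. Percent activity was relative to 20 uM Triacsin C.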
On the % scale 0 is the no-effect control and ±100 the full control effect; potency means the concentration at half of the fitted maximal effect.

Potency, inconclusive:
CC(=O)N1CC(C)Sc2ccc(S(=O)(=O)NCc3ccccc3Cl)cc21 (stereo unspecified) 23.1 µM [falling, partial curve, poor fit], CC(=O)Nc1cccc(NC(=O)C2CCCN2C(=O)Nc2cccc(F)c2)c1 (stereo unspecified) 20.6 µM [activator, single point], CC(=O)N1c2ccc(S(=O)(=O)NCc3ccccc3Cl)cc2CC1C (stereo unspecified) 23.1 µM [falling, single point], NC(=NCCCCCCN=C(N)/N=C(\N)Nc1ccc(Cl)cc1)/N=C(\N)Nc1ccc(Cl)cc1 20.6 µM [falling, single point], CCN(CC)c1ccc(/C=C2\CCC(/C=N/NC(=O)c3ccc(=O)n(C)c3)=C2N2CCOCC2)cc1 8.2 µM [falling, partial curve], CC(=O)Nc1nc2cc(N)ccc2s1 0.461 µM [falling, full curve, poor fit], O=C(CSc1nnc(-c2cccs2)n1Cc1ccco1)c1ccc2c(c1)OCO2 1.16 µM [activator, full curve], Cc1ccccc1N(CC(=O)NCC1CCCO1)C(=O)CNS(=O)(=O)c1ccc(F)cc1 (stereo unspecified) 1.84 µM [falling, partial curve]

Lipid storage change, negative = inhibition, inconclusive:
N#C/C(=C\c1ccncc1)c1nc2c(s1)CCCC2 14.7%, Cc1cccc(N(O)C(=O)Nc2cccc(Cl)c2)c1 -176%, Cc1cccc(NC(=O)C(=O)NCc2ccc3c(c2)OCO3)c1C 18.2%, O=c1cc(-c2ccncc2)oc2c1ccc1ccccc12 -21.4%, CC(C)(C)C(=O)OCc1nc(-c2ccc(O)c(O)c2)cs1 -24.8%, COc1cccc(-n2cnc3scc(-c4cccs4)c3c2=O)c1 46.3%, CCNc1nc(NCC)n2c(SCC(=O)c3ccccc3F)nnc2n1 2.08%, Cc1cc(C)n2nc(N)c(N=Nc3ccc(Cl)cc3)c2n1 18.1%, Cc1ccc(NC(=O)C2CCCN2C(=O)OCc2ccccc2)c(O)c1 (stereo unspecified) 84.8%, COc1cc(CCCN2CCNC[C@@H]2Cc2ccc(O)cc2)cc(OC)c1OC 13.1%, C/C(=N\Nc1ccc(S(=O)(=O)Nc2ccccc2)cc1[N+](=O)[O-])c1ccncc1 -33.3%, Cc1ccc(S(=O)(=O)NC(CC(=O)O)c2cccs2)cc1 (stereo unspecified) -23.7%, CCN(CC(=O)Nc1ccc(OC)cc1)C(=O)c1ccccc1Sc1ccccc1C#N, COc1ccc(/C=C2\CN(Cc3ccccc3)C/C(=C\c3ccc(OC)cc3)C2=O)cc1 2.62%, O=C(CSc1nnc(NC(=O)c2ccccc2F)s1)NC1CC1 43.2%, O=C(O)c1ccc(-n2ncc3c2/C(=C/c2cccc([N+](=O)[O-])c2)CC3)cc1 16%, Cc1cc(C)n(C(=O)/C(C#N)=C/N(C)C)n1 -38.8%, COc1ccc(/C=C(\NC(=O)c2ccco2)C(=O)NCCc2nc3ccccc3[nH]2)cc1 5.07%, Cc1cc(C)c(S(=O)(=O)NCC2CCC(C(=O)NCCCN3CCC(C)CC3)CC2)c(C)c1 (stereo unspecified) -6.65%, COc1ccccc1C1CC(=O)NC(SCC(=O)Nc2ccccc2)=C1C#N (stereo unspecified) 18% [at 9.22 µM], Nc1cc(Cl)ccc1Oc1ccccc1 46.7%, C#CCOCCOCCOCCNc1nc(N2CCOCC2)nc(N2CCN(C(=O)CCCCCCCCCCNC(=O)[C@H](CO)n3cc(CCCCCN)nn3)CC2)n1 54.4%, Cc1[nH]nc(N2CCCCCC2)c1[N+](=O)[O-] 1.36%, CC(C)(C)NC(=O)C1N(c2cccnc2)C(=O)C2C(C(=O)Nc3ccccc3F)C3(C)C=CC21O3 (stereo unspecified) -32%, COc1ccc(C)cc1CN(C)c1ccc(S(=O)(=O)N2CCN(C)CC2)cn1, NCCSC1CC(=O)N(c2ccc(Cl)c(Cl)c2)C1=O (stereo unspecified) 13.5%, CCOC(=O)C(CCSC)NC(=O)CN (stereo unspecified) 116%, CC(C)Oc1ccc(OCCn2c(S(=O)(=O)O)nc3c(N)ncnc32)cc1 23.6%, CC(C)N1C(=O)c2ccc(C(=O)O)cc2C1=O -41.3%, CC(C)[C@H](NC(=O)C1CCN(C(=O)[C@H](Cc2ccccc2)NC(=O)OC(C)(C)C)CC1)C(=O)O -22.7%, Cc1ccc(C)c(NC(=O)Nn2cnnc2)c1 18.9%, NC(=O)c1nsc(C(=O)N(c2ccccc2F)C(C(=O)NCc2ccc(F)cc2)c2ccc(O)cc2)c1N (stereo unspecified) 89.2%, Cn1c(=O)n(C)c2cc(S(=O)(=O)NCCc3ccccc3)ccc21 12.5%, CC/C(C)=N/Nc1cccc([N+](=O)[O-])c1 18.1%, O=C(Nc1ccccc1Cl)ON=C1c2ccccc2-c2ccccc21 -2.96%, Nc1nc(SCC(=O)Nc2cccc(S(=O)(=O)N3CCCCCC3)c2)n[nH]1 -1.21%, N/C(=N\OC(=O)COc1ccc(Cl)cc1)c1cccnc1 19.4%, COc1ccc(NC(=O)C2=CCN(S(=O)(=O)c3ccccc3)CC2)cc1OC 12.9%, CCC(=O)N(CCCN(C)C)c1nc(-c2cc(OC)ccc2OC)cs1 -21.6%, COC(=O)c1[nH]c2ccccc2c1NC(=O)C(C)N1CCN(C(=O)c2ccco2)CC1 (stereo unspecified) 21.9%, Cc1ccc(C(=O)OCC(=O)N(C)C2CCS(=O)(=O)C2)cc1S(=O)(=O)N1CCOCC1 (stereo unspecified) 6.45%, Fc1ccc(Cn2nnc(-c3ccc(CN4CCOCC4)cc3)n2)cc1 93.7%, O=S(=O)(c1ccc(C2=CSC3=NCCN23)cc1)N1CCOCC1 -19%
